Measurements taken from patent US5091390A, “Treatment of CNS disorders with 4,5,6,7-tetrahydro-1H-imidazo (4,5-)-pyridines and analogs” (E. I. du Pont de Nemours and Company, priority 1990, dated 1992).
At least one read-out could not be matched to a standard name with certainty.

Tested on: AII receptors (rat adrenal cortical microsomes)
Settings: 60 min

CCCCc1nc(Cl)c(CO)n1Cc1ccc(-c2ccccc2-c2nn[nH]n2)cc1 [DuP 753]
activity: ~28%
